Source: US8632749B2, “Two photon tracer, method for the preparation thereof and the use thereof in screening anticancer agents” (SNU R&DB Foundation, priority 2009, dated 2014)

Tested on: Human colon cancer tissue and normal tissue
Test: TPM imaging of AG2 uptake in human colon normal and cancer tissue slices
Description: In the present invention, an additional assessment was made of the utility of AG2 in tissue imaging for the diagnosis of colon cancer. In this regard, the images of normal- and cancer-tissue slices from colon-cancer patients were employed. […] The tissues were incubated in artificial cerebrospinal fluid (ACSF) for 4 h at 37° C. in the absence and presence of taxol (50 μM), after which AG2 uptake was monitored with TPM by following the change in TPEF at a depth of 100 μm.
Human colon cancer tissue and normal tissue were obtained from colon cancer patients by conducting colonoscopic examinations and taking samples.
Normal tissues, cancerous tissue, and cancerous tissue containing 50 μM taxol were incubated in artificial cerebrospinal fluid (ACSF) bubbled with 95% O2 and 5% CO2 for 4 hrs at 37° C. The tissues were then washed three times with ACSF, transferred to glass-bottomed dishes (MatTek), added with 50 μM AG2, and observed by TPM.
To determine whether the relative uptake was affected by incubation in ACSF, the same experiment was conducted with normal tissue and colon cancerous tissue obtained immediately after the colonoscopic biopsy.

## CC(=O)c1ccc2cc(N(C)CC(=O)N3CCN(CCOC4OC(CO)C(O)C(O)C4O)CC3)ccc2c1 (centres unmarked) [AG2]
Tissue depth >150 μm
  AG2 uptake at imaging depth: negligible
Tissue slices, TPM
  Time uptake could be monitored without noticeable decay: more than 3000 s
